Results taken from patent publication US20260070976A1.

B1: X7 (antibody, human IgG4, V domains shown)
VH: QVQLVQSGAEVKKPGSSVKVSCKASGYNFLNYDVNWVRQAPGQGLEWMGGIIPIFGTANYAQKFQGRVTITADESTSTAYMELSSLRSEDTAVYYCATGVGAGWFDPWGQGTLVTVSS
VL: DIVMTQSPDSLAVSLGERATINCKSSQSVFFDENNKNYLAWYQQKPGQPPKLLIYWASTRESGVPDRFSGSGSGTDFTLTISSLQAEDVAVYYCQQYFEEPYTFGQGTRLEIK
B2: X20 (antibody, human IgG4, V domains shown)
VH: B1 VH with N31H, G99A
VL: B1 VL with F30Y, D32S, F98Y
B3: X14 (antibody, human IgG4, V domains shown)
VH: B1 VH with N31H, G99A, P107T
VL: B1 VL with F30Y, D32S, E33P
B4: X18 (antibody, human IgG4, V domains shown)
VH: B1 VH with N31H, G99A, P107T
VL: B1 VL with F30W, E33P
B5: X11 (antibody, human IgG4, V domains shown)
VH: B1 VH
VL: B1 VL with F30Y, D32S, F98Y
B6: X17 (antibody, human IgG4, V domains shown)
VH: B1 VH with N31H, G99A, P107T
VL: B1 VL
B7: X4 (antibody, human IgG4, V domains shown)
VH: B1 VH
VL: B1 VL with F30Y, D32S, E33P

These binders were tested against cell surface PILRA on cynomolgus monocytes (cynomolgus monkey) (assay: flow cytometry, Alexa Fluor 647-conjugated antibody on cynomolgus monocytes).

binding, binds:
B1
B2
B3
B4
B5

These binders were tested against cell surface PILRA on cynomolgus monocytes (cynomolgus monkey) (assay: Binding on cyno mono (cynomolgus monocytes), flow cytometry; summary cell).

binding, binds:
B1
B2
B3
B4
B5

The binders below were run against cell surface PILRA on cynomolgus monocytes (cynomolgus monkey) (assay: flow cytometry; Alexa Fluor 647-conjugated antibody on cynomolgus monocytes (white blood cells), Fc receptors blocked, 30 min on ice).

binding, binds:
B1
B2
B3
B4
B5

What follows are binders tested against recombinant cynomolgus PILRB (cynomolgus monkey) (assay: SPR).

binding, binds:
B1
B2
B3
B6
B7
B4
B5

Residue numbers refer to the chain shown, from its start. Results are given in words; binding and its absence hold for the method and conditions named. Binding can be weak; no strength is given.
